In PubChem BioAssay AID2685 (National Center for Advancing Translational Sciences (NCATS), 2010) one finds cell number change and AC50 data, which are given here for 39 compounds.

This assay is described as follows: qHTS Assay for Lipid Storage Modulators in Drosophila S3 Cells.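 As to cell number change: cells counted by Cell Tracker Red CMTPX staining in the red channel.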 As to conditions: BODIPY lipid droplet fluorescence, 18-24 h; for cell number change: measured here: cell count max response, cells fed with added oleic acid. In outline: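 Drosophila S3 cells got compounds at several concentrations plus oleic acid (400 uM solution). Laser-scanning cytometry with 488 nm excitation read lipid droplets at 500-530 nm and cells at 575-640 nm. Percent activity was relative to 20 uM Triacsin C.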
For orientation: In qHTS, concentration-response curves come from the screen itself.

The mark [1] stands for this setting: measured here: cell number channel AC50, cells fed with added oleic acid.
[2] abbreviates: measured here: lipid fluorescence (Fed channel) AC50, cells fed with added oleic acid.

Some of the results follow. The main result of the screen is listed elsewhere. These columns were measured beside it and carry no call. Compounds called inactive in the main read-out are mostly missing here. Potencies come from curve fits of mixed quality, noted in brackets.

As to `COCCn1c(C)cc(/C=C2/NC(=O)N(c3cccc(Cl)c3)C2=O)c1C`, the cell number change is 12.5%. For the same compound, the AC50 (in general, the concentration at which the activity in the assay is half-maximal) under setting [1] is 2.06 µM [rising, partial curve]. For the same compound, the AC50 under setting [2] was 18.4 µM [rising, single point].
Turning to `FC(F)Oc1ccc(NC(=S)NCc2ccco2)cc1Cl`, the cell number change was -9.87%. Under setting [2], the AC50 was 0.58 µM [falling, single point].
On to `CC(C)CNS(=O)(=O)c1ccc(NC(=O)Cn2nc(-c3ccc(F)cc3)ccc2=O)cc1`, for which the cell number change is 30.2%. Besides, the AC50 under setting [1] was 5.8 µM [rising, partial curve].
For the compound `CCN(CC)C(=O)Cn1cc(C(=O)C(=O)N2CCN(c3ccc([N+](=O)[O-])cc3)CC2)c2ccccc21`, the cell number change turned out to be 50%. The concentration at half-maximal activity (AC50) under setting [1] was 0.164 µM [rising, full curve]. Moreover, the concentration at half-maximal activity (AC50) under setting [2] is 9.2 µM [rising, partial curve].
Turning to `Cc1cc(NC(=O)C(C)SCC(=O)O)no1` (stereo not drawn), the cell number change is 5.35%. Further, the AC50 under setting [1] is 0.00461 µM [rising, full curve, poor fit]. The half-maximal activity concentration (AC50) under setting [2] is 0.00517 µM [rising, full curve].
`Cc1nc(NS(=O)(=O)c2ccccc2)sc1NC(=O)OCCN(C)C`: the cell number change came out at 11%. Besides, the AC50 under setting [1] was 0.291 µM [falling, full curve].
`O=C(NC(=S)NCC1CCCO1)c1ccc([N+](=O)[O-])cc1` (stereo not drawn): the cell number change is 10.5%. For the same compound, the AC50 under setting [2] is 0.00411 µM [falling, full curve, poor fit].
Take `Cc1ccc(CNS(=O)(=O)N(C)C)cc1`: the cell number change was -21.1%. For the same compound, under setting [2], the half-maximal activity concentration (AC50) is 32.6 µM [falling, single point].
As for `Cc1oc(-c2ccccc2Cl)nc1Cn1cccc1C1=NC(c2ccccc2)CO1` (stereo not drawn), the cell number change was -11.9%. Moreover, the half-maximal activity concentration (AC50) under setting [2] was 6.51 µM [falling, single point].
Regarding `Cn1c(C(=O)NC2CCCCCC2)cc2c(=O)n(C)c3ccccc3c21`, the cell number change was -32%. Besides, the AC50 under setting [1] was 6.51 µM [falling, full curve, poor fit]. Further, under setting [2], the half-maximal activity concentration (AC50) is 5.17 µM [falling, partial curve, poor fit].
Regarding `O=C(c1cccnc1)N1CCN(Cc2ccccc2Br)CC1`, the cell number change stood at 1.01%.
Still for that read-out and setting: then `CC(C)C[C@@H](C)C(=O)N(Cc1ccccc1)c1ccccc1`, with 5.43%.
Regarding `O=C(O)c1ccc2c(=O)[nH]c(CCl)nc2c1`, the cell number change was -49%. Further, under setting [1], the AC50 is 29.1 µM [falling, single point]. For the same compound, under setting [2], the half-maximal activity concentration (AC50) was 29.1 µM [falling, single point].
As for `CCCCn1nc(NC(=O)c2cccs2)c2cc3cc(OC)ccc3nc21`, under setting [2], the AC50 was 6.51 µM [rising, partial curve, poor fit].
Consider `CCN(Cc1nc(-c2ccccc2)no1)C(=O)c1ccco1`, for which the cell number change amounted to 7.69%.
Turning to `COc1ccc(O)c(/C=N/Nc2nc3ccccc3[nH]2)c1`, the cell number change is -21.3%. Besides, the AC50 under setting [1] was 0.146 µM [falling, partial curve, poor fit].
`COc1ccc(C(=O)OCC(=O)NCC2CCCCC2)cc1F`: the cell number change was -77%. Moreover, the concentration at half-maximal activity (AC50) under setting [1] is 16.4 µM [falling, partial curve].
For `CCN(CC)c1ccc(C(=O)OCC(=O)N(C(C)C)C(C)C)cc1`, the cell number change came to 0.782%.
As for `Cc1ccc(S(=O)(=O)N2CCN(C(=O)c3cc(S(=O)(=O)N(C)C)ccc3N3CCCC3)CC2)c(C)c1`, the cell number change is -20.5%. Further, the half-maximal activity concentration (AC50) under setting [1] was 0.82 µM [falling, full curve, poor fit]. Under setting [2], the AC50 was 20.6 µM [falling, single point].
In the case of `O=C(O)CCS(=O)(=O)Cc1ccccc1Cl`, the half-maximal activity concentration (AC50) under setting [2] is 29.1 µM [falling, single point].
For `Cc1ccc2nc3c(nc2c1C)C(O)=C3O`, the cell number change is -24.4%.
Still for that read-out and setting: with `COc1ccc(Cn2c(O)c(/C=N/NC(=O)c3cccnc3)c3ccccc3c2=O)cc1` the figure was 6.84%.
For `Nc1nc2ccccc2n1/N=C/c1ccc(-c2ccccc2)o1`, the cell number change is -31.6%. Further, the AC50 under setting [1] was 29.1 µM [falling, single point].
`CCOC(=O)C1CCCN(S(=O)(=O)Cc2ccccc2Cl)C1` (stereo not drawn): the cell number change was -23.9%.
As to `O=C(CCNS(=O)(=O)c1ccc2c(c1)CCC(=O)N2)NCc1ccc2c(c1)OCO2`, the cell number change was -4.65%. Further, under setting [2], the concentration at half-maximal activity (AC50) is 2.91 µM [rising, single point].
Consider `O=C1C2C(c3ccccc3)CC=CC2[C@H](c2ccc(C(F)(F)F)cc2)N1Cc1ccccc1` (stereo partly drawn), for which the AC50 under setting [2] was 29.1 µM [falling, single point].
Take `CCOC(=O)[C@H]1[C@H]2COc3ccc(OC)cc3[C@H]2N2C(=O)CNC(=O)[C@@]12C`: the cell number change was -6.79%. The AC50 under setting [2] is 29.1 µM [falling, single point].
As to `Cc1ccc2c(c1)c1c(c(=O)n(-c3ccccc3C)c(=O)n1CC(=O)NCC1CCCO1)n2C` (stereo not drawn), the cell number change is 5.19%. In addition, under setting [2], the half-maximal activity concentration (AC50) is 2.06 µM [rising, partial curve].
As for `Cc1cccc(C(=O)n2c(=S)nc3ccccn32)c1`, the cell number change was found to be 14.1%. The AC50 under setting [2] was 6.51 µM [rising, partial curve].
On to `N#CC1(NC(=O)CSc2nc3ccc([N+](=O)[O-])cc3s2)CCCCC1`, for which the cell number change was 11.6%.
Regarding `CC1=CC2=NC(=O)/C(=C/c3cccn3Cc3ccccc3)C(=N)N2O1`, the cell number change was 15.1%. In addition, the AC50 under setting [2] is 0.651 µM [rising, full curve, poor fit].
`CCOC(=O)C1CCN(C(=O)c2cc(COc3ccc(F)cc3F)on2)CC1`: the cell number change was 25.5%. For the same compound, under setting [2], the concentration at half-maximal activity (AC50) is 20.6 µM [rising, partial curve].
For `Cc1ccc(NC2CCCN(C(=O)CCC(=O)c3ccccc3)C2)cc1C` (stereo not drawn), the cell number change is -11.2%. The AC50 under setting [2] was 0.0731 µM [falling, full curve, poor fit].
As for `CCN1CCN(c2ccc(S(=O)(=O)N3CCOCC3)cc2NC(=O)C(C)Oc2ccc(Cl)cc2)CC1` (stereo not drawn), the cell number change amounted to 66%. Under setting [1], the half-maximal activity concentration (AC50) is 18.4 µM [rising, partial curve].
For `COc1ccc([C@H]2C=C(C(=O)O)O[C@@H](OCCCCO)C2)cc1`, the AC50 under setting [2] was 25.9 µM [rising, single point].
On to `C=CCNC(=O)NC(=O)COC(=O)c1nc2nccc(C)n2n1`, for which the cell number change was -45%. In addition, the half-maximal activity concentration (AC50) under setting [1] is 5.8 µM [falling, full curve].
Consider `N=C1c2ccccc2CN1c1ccc(N2CCOCC2)c(S(=O)(=O)Nc2ccc(Cl)cc2)c1`, for which the cell number change was -37.3%. In addition, under setting [1], the AC50 is 29.1 µM [falling, single point]. The AC50 under setting [2] was 29.1 µM [falling, single point].
Regarding `Cn1c(=O)[nH]c(=O)c2c1[nH]c(=S)n2CCCc1ccccc1`, the cell number change was -16.8%. Also, under setting [2], the AC50 was 29.1 µM [falling, single point].
As to `C/C(=N\NC(=O)CNC(=O)c1ccco1)c1ccc(Br)cc1`, the cell number change was determined as 24.4%. Moreover, the concentration at half-maximal activity (AC50) under setting [1] was 6.51 µM [rising, single point].
